Experimental data: PubChem BioAssay AID1259425 (University of Nebraska Medical Center, 2018)

- Purpose: 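Seek colon cancer weak points whose silencing resembles KSR1 loss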 (primary screen)
- System: HCT116 human colon cancer cells
- Reagents: siRNA pool against human genes, 50 nM siRNA
- Measurement: 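mRNA of six signature genes measured together by branched-DNA assay after 50 nM siRNA pool, blank removed, divided by geometric mean of two housekeeping genes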
- Scale: BNIP3L mRNA: higher = more BNIP3L transcript after knockdown
The whole screen tested about 14,000 reagents; this is an unselected part. Not all columns of the deposit are shown. Not stated in the record: the time to read-out.

KCNS2 gave BNIP3L mRNA, set 1 = 0.146.
IQCE (IQ motif containing E) showed BNIP3L mRNA, set 1 = 0.118.
After knock-down of LYST (lysosomal trafficking regulator), the screen gave BNIP3L mRNA, set 1 = 0.0853.
Against ZC4H2 (zinc finger C4H2-type containing), the entry reads BNIP3L mRNA, set 1 = 0.126.
Against SCN11A (sodium voltage-gated channel alpha subunit 11) the deposit lists BNIP3L mRNA, set 1 = 0.0645.
DYNC1LI2 (dynein cytoplasmic 1 light intermediate chain 2) scored BNIP3L mRNA, set 1 = 0.102.
Depletion of S100A3 (S100 calcium binding protein A3) came out at: BNIP3L mRNA, set 1 = 0.0594.
Depletion of ELL (elongation factor for RNA polymerase II) came out at: BNIP3L mRNA, set 1 = 0.0864.
For MAT1A (methionine adenosyltransferase 1A), the entry reads BNIP3L mRNA, set 1 = 0.0921.
After knock-down of SLC5A3, the record shows BNIP3L mRNA, set 1 = 0.0454.
With knock-down of COPS6 (COP9 signalosome subunit 6) the results were BNIP3L mRNA, set 1 = 0.164.
Against TCEA3 (transcription elongation factor A3), the entry reads BNIP3L mRNA, set 1 = 0.108.
VEGFC (vascular endothelial growth factor C) scored BNIP3L mRNA, set 1 = 0.0663.
After knock-down of ARRB1 (arrestin beta 1), the screen gave BNIP3L mRNA, set 1 = 0.0946.
With knock-down of KCNH6 (potassium voltage-gated channel subfamily H member 6), the screen gave BNIP3L mRNA, set 1 = 0.286.
ANKRD6 (ankyrin repeat domain 6) scored BNIP3L mRNA, set 1 = 0.0917.
Against CLIC5 (CLIC family member 5), the values are BNIP3L mRNA, set 1 = 0.105.
For PEBP1 (phosphatidylethanolamine binding protein 1), the values are BNIP3L mRNA, set 1 = 0.0946.
After knock-down of CYP2A7 (cytochrome P450 family 2 subfamily A member 7), the record shows BNIP3L mRNA, set 1 = 0.0757.
For CCNDBP1 (cyclin D1 binding protein 1), the entry reads BNIP3L mRNA, set 1 = 0.216.
Depletion of SREBF1 (sterol regulatory element binding transcription factor 1) came out at: BNIP3L mRNA, set 1 = 0.114.
For AAR2 (AAR2 splicing factor) the deposit lists BNIP3L mRNA, set 1 = 0.0968.
OR52A1 (olfactory receptor family 52 subfamily A member 1) scored BNIP3L mRNA, set 1 = 0.147.
After knock-down of CAMK1D (calcium/calmodulin dependent protein kinase ID) the results were BNIP3L mRNA, set 1 = 0.0888.
Depletion of MACROD1 (mono-ADP ribosylhydrolase 1) resulted in: BNIP3L mRNA, set 1 = 0.11.
With knock-down of KDM1A (lysine demethylase 1A), the screen gave BNIP3L mRNA, set 1 = 0.135.
For PANK2 (pantothenate kinase 2), the entry reads BNIP3L mRNA, set 1 = 0.09.
Silencing of E2F4 (E2F transcription factor 4) came out at: BNIP3L mRNA, set 1 = 0.0576.
With knock-down of GSE1 (Gse1 coiled-coil protein) the results were BNIP3L mRNA, set 1 = 0.0539.
With knock-down of JPT2 (Jupiter microtubule associated homolog 2), the record shows BNIP3L mRNA, set 1 = 0.129.
Silencing of RILPL2 (Rab interacting lysosomal protein like 2) came out at: BNIP3L mRNA, set 1 = 0.0861.
Silencing of BCL6 (BCL6 transcription repressor) gave: BNIP3L mRNA, set 1 = 0.069.
Against ZFP36L1 (ZFP36 like 1 zinc finger CCCH-type), the values are BNIP3L mRNA, set 1 = 0.172.
After knock-down of MRPL37 (mitochondrial ribosomal protein L37) the results were BNIP3L mRNA, set 1 = 0.117.
Against INTS6 (integrator complex subunit 6) the deposit lists BNIP3L mRNA, set 1 = 0.198.
Knock-down of SUMO2 (small ubiquitin like modifier 2) came out at: BNIP3L mRNA, set 1 = 0.126.

Ordered by “BNIP3L mRNA, set 1” (low to high): 3 of the entries above
SCN11A (sodium voltage-gated channel alpha subunit 11): BNIP3L mRNA, set 1 = 0.0645
LYST (lysosomal trafficking regulator): BNIP3L mRNA, set 1 = 0.0853
ZC4H2 (zinc finger C4H2-type containing): BNIP3L mRNA, set 1 = 0.126
